Read-outs that look alike come from different tables or passages of the source. These are yes or no findings as the source states them, for the method shown. In cells and extracts the contact can be indirect. A yes stands for co-enrichment or nearness to the bait. Other partners may have been found. For some of these results: Where a sequence is shown, tags or fusion partners need not be part of it.

Chains of the proteins cited; added tags and fusions are not shown. Residues count along the entry.
UniProt O95831, residues 102-613: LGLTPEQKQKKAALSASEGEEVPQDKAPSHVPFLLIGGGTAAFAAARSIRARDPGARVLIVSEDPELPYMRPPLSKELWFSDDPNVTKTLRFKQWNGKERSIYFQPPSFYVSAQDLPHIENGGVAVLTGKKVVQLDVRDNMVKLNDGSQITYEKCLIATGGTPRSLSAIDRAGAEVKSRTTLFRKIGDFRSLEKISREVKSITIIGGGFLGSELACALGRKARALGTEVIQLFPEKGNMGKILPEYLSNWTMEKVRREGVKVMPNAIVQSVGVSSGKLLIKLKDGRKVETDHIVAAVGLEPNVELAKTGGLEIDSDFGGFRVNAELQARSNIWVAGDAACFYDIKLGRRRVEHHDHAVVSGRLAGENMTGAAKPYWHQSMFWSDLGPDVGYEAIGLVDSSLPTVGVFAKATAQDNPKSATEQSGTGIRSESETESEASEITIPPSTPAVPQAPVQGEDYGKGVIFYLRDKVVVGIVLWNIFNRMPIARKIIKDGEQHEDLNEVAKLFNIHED

Consider four molecules from paper doi:10.64898/2025.12.12.693940.

Holding throughout (experiment): affinity purification with mass spectrometry
In assay [1] the target is T1, CCDC127-HA (human) (UniProt Q96BQ5).
T1 sequence: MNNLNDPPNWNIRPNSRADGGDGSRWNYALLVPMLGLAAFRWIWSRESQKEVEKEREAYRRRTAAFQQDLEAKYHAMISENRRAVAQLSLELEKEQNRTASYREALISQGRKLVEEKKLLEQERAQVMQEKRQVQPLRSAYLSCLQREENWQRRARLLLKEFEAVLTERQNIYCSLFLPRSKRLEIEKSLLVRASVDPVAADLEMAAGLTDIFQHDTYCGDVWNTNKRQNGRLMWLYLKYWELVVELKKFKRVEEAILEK

The target of assay [2] is T1, CCDC127-HA (human). The source holds these as a separate data set.
A further assay addresses T2, MIA40-Strep (human) (UniProt Q8N4Q1).
T2 sequence: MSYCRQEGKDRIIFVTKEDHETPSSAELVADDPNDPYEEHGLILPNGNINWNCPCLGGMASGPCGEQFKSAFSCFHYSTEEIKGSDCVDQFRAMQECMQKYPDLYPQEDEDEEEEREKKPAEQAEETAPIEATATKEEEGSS

As for AIFM1 (from UniProt O95831 102-613), the binding entry with CCDC127-HA (human) [1] was “binds”.

B1: MIA40 (endogenous) (protein, UniProt Q8N4Q1 1-142)
chain: MSYCRQEGKDRIIFVTKEDHETPSSAELVADDPNDPYEEHGLILPNGNINWNCPCLGGMASGPCGEQFKSAFSCFHYSTEEIKGSDCVDQFRAMQECMQKYPDLYPQEDEDEEEEREKKPAEQAEETAPIEATATKEEEGSS
Consider B1, for which the binding result with CCDC127-HA (human) [2] is recorded as “binds”.

B2: SAM50 (protein, UniProt Q9Y512 1-469)
chain: MGTVHARSLEPLPSSGPDFGGLGEEAEFVEVEPEAKQEILENKDVVVQHVHFDGLGRTKDDIIICEIGDVFKAKNLIEVMRKSHEAREKLLRLGIFRQVDVLIDTCQGDDALPNGLDVTFEVTELRRLTGSYNTMVGNNEGSMVLGLKLPNLLGRAEKVTFQFSYGTKETSYGLSFFKPRPGNFERNFSVNLYKVTGQFPWSSLRETDRGMSAEYSFPIWKTSHTVKWEGVWRELGCLSRTASFAVRKESGHSLKSSLSHAMVIDSRNSSILPRRGALLKVNQELAGYTGGDVSFIKEDFELQLNKQLIFDSVFSASFWGGMLVPIGDKPSSIADRFYLGGPTSIRGFSMHSIGPQSEGDYLGGEAYWAGGLHLYTPLPFRPGQGGFGELFRTHFFLNAGNLCNLNYGEGPKAHIRKLAECIRWSYGAGIVLRLGNIARLELNYCVPMGVQTGDRICDGVQFGAGIRFL
For the molecule B2, in the assay with CCDC127-HA (human) [2], the binding entry was “binds”.

B3: CCDC127 (endogenous) (protein, UniProt Q96BQ5 1-260)
chain: MNNLNDPPNWNIRPNSRADGGDGSRWNYALLVPMLGLAAFRWIWSRESQKEVEKEREAYRRRTAAFQQDLEAKYHAMISENRRAVAQLSLELEKEQNRTASYREALISQGRKLVEEKKLLEQERAQVMQEKRQVQPLRSAYLSCLQREENWQRRARLLLKEFEAVLTERQNIYCSLFLPRSKRLEIEKSLLVRASVDPVAADLEMAAGLTDIFQHDTYCGDVWNTNKRQNGRLMWLYLKYWELVVELKKFKRVEEAILEK
In the case of B3, the binding entry with MIA40-Strep (human) is listed as “binds”.
